PubChem BioAssay AID504804, Drosophila RNAi Screening Center – 2011

Assay: 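Fly genes whose loss lessens doxorubicin-driven cell death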 (primary screen)
Cell system: Drosophila Kc cells
Knock-down reagent: long dsRNA against Drosophila genes, 0.5 µg dsRNA per well
Timing: 96 h (48 h knock-down, then 48 h drug)
Conditions: doxorubicin 5 µg/ml for 48 h, added 48 h after dsRNA
Detection: 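Viability measured as cellular ATP by luminescence after 48 h knock-down then 48 h doxorubicin at 5 µg/ml; unnormalised plate counts for each replicate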
Scale: raw ATP luminescence: higher = more viable cells, protection from doxorubicin
Call rule: 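z-score of 2 or more over plate mean in both duplicates, retained only when retests and separate dsRNAs confirm the protection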
In all, the deposit lists about 19,000 reagents; this is an unselected part of those with a known target gene and a result. Over the whole deposit, 47 (0.25%) were called active. 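Signals are raw, not normalised; exact z-scores behind calls not deposited; actives needed confirmation, so some wells reaching 2 SD are inactive.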 A number with no mark means an inactive call. Names joined by + are all predicted targets of the reagent. No sequences are given here.

no.	gene	amplicon	SD above plate mean	raw ATP luminescence, replicate 1	raw ATP luminescence, replicate 2
1	spag4	DRSC02973		41240	55117
2	repo	DRSC16369		38490	35260
3	CG42710	DRSC01034		2.89e5	2.85e5
4	AP-2sigma	DRSC15957		43200	32340
5	CG18004	DRSC06705	at least 3 SD above plate mean	1.21e5	98300
6	wech	DRSC06606		73430	40377
7	fbp	DRSC02077		92463	59977
8	Lgr1	DRSC16675		46630	37750
9	Ssl1	DRSC11634		22973	16233
10	oxt	DRSC08522		54930	65250
11	CycC	DRSC16619		60017	24120
12	Wdr59	DRSC02771		85143	74310
13	CG9263	DRSC03176		77307	84760
14	RhoGEF4	DRSC11011		40697	44210
15	CG9776	DRSC12127		21270	32283
16	CG9933	DRSC03276		61597	63600
17	Pka-R2	DRSC07509		37020	1.15e5
18	CG6479	DRSC10647		32157	20057
19	CG1688	DRSC05934		55760	49597
20	Rcd5	DRSC08180		52903	35443
21	ppk27	DRSC08168	at least 2 SD above plate mean (active)		
22	Mon1	DRSC00336		21273	28003
23	X11Lbeta	DRSC18156		3.15e5	3.48e5
24	X11Lbeta	DRSC18158		3.91e5	3.60e5
25	ghi	DRSC08985		1.41e5	1.71e5
26	yem	DRSC14865		52780	45140
27	yem	DRSC17097		55640	50580
28	bug	DRSC07137		50833	58480
29	qua	DRSC03598		61753	74883
30	prt	DRSC16894		57360	55440
31	CG6180	DRSC02937		81613	58550
32	CG14125	DRSC10129		88013	1.68e5
33	CG15211	DRSC19657		3.43e5	3.35e5
34	CG1792	DRSC15290		80720	59350
35	Top1	DRSC20295		2.48e5	2.73e5
36	Fbp1	DRSC11166		41280	30063
37	GstD7	DRSC16688		47853	67820
38	CG12347	DRSC14502		39180	40340
39	CG17134	DRSC02583		44810	71020
40	Eaf	DRSC05050		52817	46863
41	Eaf	DRSC06052		52243	71420
42	RpS14b	DRSC18711		22120	24210
43	CG15286	DRSC01907		66880	77743
44	CG14406	DRSC19592		3.06e5	2.80e5
45	CG8492	DRSC10984		78093	79430
46	CG7567	DRSC16258		53750	59730
47	Mcm7	DRSC11219		47717	37270
48	OXA1L	DRSC09672		39773	38637
49	vlc	DRSC04922		48397	44730
50	CG6125	DRSC15970		1.14e5	58190
51	Zip42C.2	DRSC05004		34730	66930
52	HP1c	DRSC16166		56963	61887
53	Est-Q	DRSC11835		21443	21927
54	CG5149	DRSC02819		98393	71367
55	crp	DRSC03515		51120	54557
56	CG5290	DRSC10501		32950	32393
57	Klp67A + CG34456	DRSC10420		81187	63253
58	wrapper	DRSC04723		64280	75343
59	Gmap	DRSC20057		2.82e5	2.37e5
60	CG30419	DRSC04208		77080	59813
61	CG30419	DRSC04209		58313	50453
62	Mob2	DRSC09117		45163	59457
63	Mob2	DRSC09119		1.66e5	1.62e5
64	Mob2	DRSC09856		29183	36107
65	CG18754	DRSC15387		55080	54650
66	CG32137	DRSC10271		66393	60587
67	CG32137	DRSC10272		60773	60970
68	RhoGAPp190	DRSC20097		2.74e5	2.61e5
69	APP-BP1	DRSC10920		80727	1.62e5
70	CG3534	DRSC15494		66840	53250
71	CG34265	DRSC08030		1.21e5	1.51e5
72	Ccs	DRSC06692		45683	62473
73	SdhAL	DRSC10539		35200	32200
74	Nt5c	DRSC06711		90840	69550
75	Cht7	DRSC08538		31647	44477
76	gcm	DRSC03536		36373	79463
77	Srp72	DRSC15800		44680	47140
78	CG14759	DRSC06494		33613	77670
79	Idgf1	DRSC03349		91040	56203
80	CenB1A	DRSC16923		69400	66060
81	cas	DRSC12373		61533	64540
82	mr	DRSC04332		84247	60293
83	Cyp4ac3	DRSC03304		1.16e5	99567
84	CG7222	DRSC07019		55267	56013
85	Polr3D	DRSC10485		33577	15377
86	asun	DRSC16733		45907	40630
87	Polr2J	DRSC02995		80100	75147
88	CG5174	DRSC06920		60300	61793
89	CG32365	DRSC10040		80520	84540
90	CG32365	DRSC10041		43553	52293
91	CG32365	DRSC10977		47073	48527
92	CG30389	DRSC04077		54720	44680
93	CG30389	DRSC04452		28923	34943
94	Ir7b	DRSC18009		34100	36000
95	mRpL30	DRSC18416		45860	50020
96	Tsp2A	DRSC18584		31910	45730
97	CG33282	DRSC00422		40523	37993
98	Arp5	DRSC16350		30610	45487
99	AnxB9	DRSC14111		40393	37490
100	CG6048	DRSC18398		37880	51280
101	Orai	DRSC05684		1.46e5	1.32e5
102	dar1	DRSC08049		1.27e5	1.46e5
103	CG10089	DRSC09694		55480	56913
104	CG10089	DRSC09695		73130	67563
105	Sirt1	DRSC03435		66427	47320
106	CG32733 (retired record) + CG32797	DRSC17705		1.53e5	1.65e5
107	side-VII	DRSC14578		55600	31787

Part of the list above, set out differently.
gene	amplicon	SD above plate mean	raw ATP luminescence, replicate 1	raw ATP luminescence, replicate 2
Gmap	DRSC20057		2.82e5	2.37e5
CG30419	DRSC04208		77080	59813
CG30419	DRSC04209		58313	50453
Mob2	DRSC09117		45163	59457
Mob2	DRSC09119		1.66e5	1.62e5
Mob2	DRSC09856		29183	36107
CG18754	DRSC15387		55080	54650
CG32137	DRSC10271		66393	60587
CG32137	DRSC10272		60773	60970
RhoGAPp190	DRSC20097		2.74e5	2.61e5
APP-BP1	DRSC10920		80727	1.62e5
CG3534	DRSC15494		66840	53250
CG34265	DRSC08030		1.21e5	1.51e5
Ccs	DRSC06692		45683	62473
SdhAL	DRSC10539		35200	32200
Nt5c	DRSC06711		90840	69550
Cht7	DRSC08538		31647	44477
gcm	DRSC03536		36373	79463
